Results are given in words; binding and its absence hold for the method and conditions named. Binding seen in cells or lysates may run through a third protein. Some entries that bind do so weakly or less than the wild type. Sequences can lack the tags named with a protein. One block for each molecule: values may come before it.
Target: T1, GST-Ino2 TAD1 (aa 1-35) (S. cerevisiae) (UniProt P26798)
T1 sequence: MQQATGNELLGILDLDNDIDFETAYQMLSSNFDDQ
Assay: pull-down; GST-TAD fusions immobilised on GSH sepharose, incubated with total protein extracts of yeast transformants containing HA fusions of coactivators; buffer SA-125 (20 mM HEPES pH 7.6, 1 mM DTT, 1 mM EDTA, 125 mM K-acetate, 20% glycerol, 1% NP-40); washed with PBS, eluted with free GSH; blot with anti-HA-peroxidase conjugate; only the target purified

Protein sequences, listed by entry. Tags and fused reporters are not part of them. Residues count along the entry.
UniProt P53115, residues 1-670: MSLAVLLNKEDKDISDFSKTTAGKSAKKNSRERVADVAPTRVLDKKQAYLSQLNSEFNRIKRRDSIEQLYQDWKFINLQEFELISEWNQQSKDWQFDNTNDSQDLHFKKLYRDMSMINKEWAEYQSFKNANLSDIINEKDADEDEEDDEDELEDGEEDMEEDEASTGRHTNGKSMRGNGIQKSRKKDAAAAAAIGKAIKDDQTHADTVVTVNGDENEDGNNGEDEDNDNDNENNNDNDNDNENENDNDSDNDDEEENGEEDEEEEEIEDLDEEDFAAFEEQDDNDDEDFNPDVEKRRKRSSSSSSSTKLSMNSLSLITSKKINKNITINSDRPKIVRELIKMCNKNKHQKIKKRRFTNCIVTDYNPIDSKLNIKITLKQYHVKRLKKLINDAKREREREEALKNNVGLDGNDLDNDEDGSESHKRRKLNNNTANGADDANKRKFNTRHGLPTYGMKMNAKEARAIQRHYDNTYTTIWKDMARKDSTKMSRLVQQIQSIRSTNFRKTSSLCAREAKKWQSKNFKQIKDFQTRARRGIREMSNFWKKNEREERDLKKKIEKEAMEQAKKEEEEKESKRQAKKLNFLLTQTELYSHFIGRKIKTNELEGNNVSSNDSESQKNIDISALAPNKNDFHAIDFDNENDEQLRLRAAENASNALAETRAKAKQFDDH
UniProt P18480, residues 1-334: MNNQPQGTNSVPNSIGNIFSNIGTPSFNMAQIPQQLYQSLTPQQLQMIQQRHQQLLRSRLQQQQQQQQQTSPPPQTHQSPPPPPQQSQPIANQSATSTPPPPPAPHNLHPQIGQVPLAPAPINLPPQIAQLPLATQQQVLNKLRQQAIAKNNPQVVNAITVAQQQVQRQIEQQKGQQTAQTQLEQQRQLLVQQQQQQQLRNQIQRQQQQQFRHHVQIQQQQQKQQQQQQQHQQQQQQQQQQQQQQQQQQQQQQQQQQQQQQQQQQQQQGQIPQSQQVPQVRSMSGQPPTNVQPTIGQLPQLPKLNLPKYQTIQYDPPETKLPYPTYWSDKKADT
UniProt P18888: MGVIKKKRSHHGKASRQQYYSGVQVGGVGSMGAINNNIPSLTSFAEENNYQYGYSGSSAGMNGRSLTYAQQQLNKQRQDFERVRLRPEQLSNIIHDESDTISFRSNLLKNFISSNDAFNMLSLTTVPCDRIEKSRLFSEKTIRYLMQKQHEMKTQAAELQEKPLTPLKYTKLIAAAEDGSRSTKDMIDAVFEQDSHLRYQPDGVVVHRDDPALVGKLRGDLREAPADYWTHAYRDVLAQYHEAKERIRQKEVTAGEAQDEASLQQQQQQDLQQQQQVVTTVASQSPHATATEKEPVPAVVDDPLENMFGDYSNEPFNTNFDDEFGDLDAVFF
UniProt P32597, residues 1-300: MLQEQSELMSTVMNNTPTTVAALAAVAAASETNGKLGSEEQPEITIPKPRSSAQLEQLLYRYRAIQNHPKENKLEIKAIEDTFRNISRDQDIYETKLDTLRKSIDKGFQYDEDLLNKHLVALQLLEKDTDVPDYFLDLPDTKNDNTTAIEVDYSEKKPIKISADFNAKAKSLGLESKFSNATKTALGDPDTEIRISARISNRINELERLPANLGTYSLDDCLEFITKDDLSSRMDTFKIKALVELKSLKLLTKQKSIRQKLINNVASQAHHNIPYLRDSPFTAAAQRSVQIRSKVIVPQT
UniProt P22082, residues 1-307: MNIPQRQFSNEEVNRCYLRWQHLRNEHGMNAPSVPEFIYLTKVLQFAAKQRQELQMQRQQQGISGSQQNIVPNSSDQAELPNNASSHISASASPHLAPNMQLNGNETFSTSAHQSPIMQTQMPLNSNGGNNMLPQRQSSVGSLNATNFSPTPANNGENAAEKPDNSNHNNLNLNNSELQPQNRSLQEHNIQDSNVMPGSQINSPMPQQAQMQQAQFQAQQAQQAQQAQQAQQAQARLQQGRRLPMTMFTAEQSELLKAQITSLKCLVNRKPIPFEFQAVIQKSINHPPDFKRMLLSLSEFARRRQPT
UniProt Q03761: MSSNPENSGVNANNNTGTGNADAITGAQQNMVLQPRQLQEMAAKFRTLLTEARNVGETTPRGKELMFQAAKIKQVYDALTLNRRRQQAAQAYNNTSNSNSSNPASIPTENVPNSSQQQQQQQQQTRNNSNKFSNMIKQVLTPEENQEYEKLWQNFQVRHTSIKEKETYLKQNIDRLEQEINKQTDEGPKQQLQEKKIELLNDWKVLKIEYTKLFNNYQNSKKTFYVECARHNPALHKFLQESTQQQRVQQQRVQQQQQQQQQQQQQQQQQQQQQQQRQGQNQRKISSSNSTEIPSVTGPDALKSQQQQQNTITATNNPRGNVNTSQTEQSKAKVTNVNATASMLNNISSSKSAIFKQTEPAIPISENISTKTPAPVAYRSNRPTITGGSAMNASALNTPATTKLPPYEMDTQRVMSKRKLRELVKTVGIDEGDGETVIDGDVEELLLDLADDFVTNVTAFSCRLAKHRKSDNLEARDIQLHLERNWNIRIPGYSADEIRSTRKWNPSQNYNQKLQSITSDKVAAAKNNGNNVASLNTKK

binding: binds
Molecule: Ino80 (aa 1-670), HA fusion (from UniProt P53115 1-670) (domain or fragment)

binding: binds
Molecule: Snf5 (aa 1-334), HA fusion (from UniProt P18480 1-334) (domain or fragment)

binding: binds
Molecule: Snf6 (full-length), HA fusion (from UniProt P18888 1-332)

binding: binds
Molecule: Sth1 (aa 1-300), HA fusion (from UniProt P32597 1-300) (domain or fragment)

binding: binds
Molecule: Swi2 (aa 1-307), HA fusion (from UniProt P22082 1-307) (domain or fragment)

binding: binds
Molecule: Taf12, HA fusion (from UniProt Q03761 1-539)

binding: binds
B1: Taf6, HA fusion (protein, UniProt P53040 1-516)
chain: MSTQQQSYTIWSPQDTVKDVAESLGLENINDDVLKALAMDVEYRILEIIEQAVKFKRHSKRDVLTTDDVSKALRVLNVEPLYGYYDGSEVNKAVSFSKVNTSGGQSVYYLDEEEVDFDRLINEPLPQVPRLPTFTTHWLAVEGVQPAIIQNPNLNDIRVSQPPFIRGAIVTALNDNSLQTPVTSTTASASVTDTGASQHLSNVKPGQNTEVKPLVKHVLSKELQIYFNKVISTLTAKSQADEAAQHMKQAALTSLRTDSGLHQLVPYFIQFIAEQITQNLSDLQLLTTILEMIYSLLSNTSIFLDPYIHSLMPSILTLLLAKKLGGSPKDDSPQEIHEFLERTNALRDFAASLLDYVLKKFPQAYKSLKPRVTRTLLKTFLDINRVFGTYYGCLKGVSVLEGESIRFFLGNLNNWARLVFNESGITLDNIEEHLNDDSNPTRTKFTKEETQILVDTVISALLVLKKDLPDLYEGKGEKVTDEDKEKLLERCGVTIGFHILKRDDAKELISAIFFGE

binding: binds
B2: Taf10, HA fusion (protein, UniProt Q12030 1-206)
chain: MDFEEDYDAEFDDNQEGQLETPFPSVAGADDGDNDNDDSVAENMKKKQKREAVVDDGSENAFGIPEFTRKDKTLEEILEMMDSTPPIIPDAVIDYYLTKNGFNVADVRVKRLLALATQKFVSDIAKDAYEYSRIRSSVAVSNANNSQARARQLLQGQQQPGVQQISQQQHQQNEKTTASKVVLTVNDLSSAVAEYGLNIGRPDFYR

binding: binds
B3: Swi1 (aa 329-657), HA fusion (domain or fragment, UniProt P09547 329-657)
chain: RAAMFAALQQKQQQRFQALQQQQQQQQNQQQQNQQPQQQQQQQQNPKFLQSQRQQQQRSILQSLNPALQEKISTELNNKQYELFMKSLIENCKKRNMPLQSIPEIGNRKINLFYLYMLVQKFGGADQVTRTQQWSMVAQRLQISDYQQLESIYFRILLPYERHMISQEGIKETQAKRIFLQQFLQELLKKVQQQQQAAALANANNNINSASSAPTPAAPGASVPATAAPGTEAGIVPVSANTPKSLNSNININVNNNNIGQQQVKKPRKQRVKKKTKKELELERKEREDFQKRQQKLLEDQQRQQKLLLETKLRQQYEIELKKLPKVYK

binding: binds
B4: Taf4, HA fusion (protein, UniProt P50105 1-388)
chain: MANSPKKPSDGTGVSASDTPKYQHTVPETKPAFNLSPGKASELSHSLPSPSQIKSTAHVSSTHNDAAGNTDDSVLPKNVSPTTNLRVESNGDTNNMFSSPAGLALPKKDDKKKNKGTSKADSKDGKASNSSGQNAQQQSDPNKMQDVLFSAGIDVREEEALLNSSINASKSQVQTNNVKIPNHLPFLHPEQVSNYMRKVGKEQNFNLTPTKNPEILDMMSSACENYMRDILTNAIVISRHRRKAVKINSGRRSEVSAALRAIALIQKKEEERRVKKRIALGLEKEDYENKIDSEETLHRASNVTAGLRAGSKKQYGWLTSSVNKPTSLGAKSSGKVASDITARGESGLKFREAREEPGIVMRDLLFALENRRNSVQTIISKGYAKIRD

binding: binds
B5: Toa1, HA fusion (protein, UniProt P32773 1-286)
chain: MSNAEASRVYEIIVESVVNEVREDFENAGIDEQTLQDLKNIWQKKLTETKVTTFSWDNQFNEGNINGVQNDLNFNLATPGVNSSEFNIKEENTGNEGLILPNINSNNNIPHSGETNINTNTVEATNNSGATLNTNTSGNTNADVTSQPKIEVKPEIELTINNANITTVENIDDESEKKDDEEKEEDVEKTRKEKEQIEQVKLQAKKEKRSALLDTDEVGSELDDSDDDYLISEGEEDGPDENLMLCLYDKVTRTKARWKCSLKDGVVTINRNDYTFQKAQVEAEWV

binding: binds
B6: Taf1 (aa 1-250), HA fusion (domain or fragment, UniProt P46677 1-250)
chain: MVKQQGSGKTNLANEDEAYEAIFGGEFGSLEIGSYIGGDEGANSKDYTEHLPDAVDFEDEDELADDDDDLPEESDANLHPAMMTMGAYDDVNENGAVLGIDSNSLNMQLPEINGDLSQQFILEDDGGTPATSNALFMGMDANEIHLATETGVLDGSGANEIGHSQLSIGGVNGNDMSINGGFIMEPDMSDGKHKKATKLDLINHEKYLLKKYFPDFEKGKILKWNKLIYRRSVPYHWHSEISRVKKPFMP
